# In PubChem BioAssay AID330 (DTP/NCI, 2004):
# The list does not hold the whole screen: it is rich in T/C values a quarter to a half above the control, in often repeated tests (any T/C) and in doses without a T/C. Other doses and runs of a compound stand elsewhere. T/C is the treated group as % of the vehicle group. Some entries give survivors of the animals treated and no T/C: the source holds a T/C of zero for them, seemingly a mark for toxic or unscored doses. Some survivor counts are full or nearly so, which does not show that the dose was tolerated: the source hardly ever lists a survival T/C far under the control, and the zero likely stands for such cases as well. Survivors were counted at the toxicity check, usually on the fifth day, unless a day is given; later deaths do not show. Schedules are NCI's codes, read here as Q, the interval in days (D) or hours (H), X, the number of doses. Some entries hold several experiments; the values are given in rising order. For survival time, the PubChem record calls one and a half times the control and up active, and a quarter to a half above the control has no call in these data; cut-offs in other NCI protocols can differ. Some T/C values are followed by the survivors on the day toxicity was checked, most often the fifth; where none is given, no animal had died by that day.
# System: P388 leukemia ip, CD2F1 mice, survival T/C
# Experiment: NCI In Vivo Anticancer Drug Screen. Data for tumor model P388 Leukemia (intraperitoneal) in CD2F1 (CDF1) mice
# Conditions: T/C endpoint: median survival time, higher T/C = longer survival
# [1] = dose: 200.0 mg/kg/injection, schedule: Q01DX005 (ip), vehicle: Klucel (hydroxypropylcellulose) (HPC)
# [2] = dose: 100.0 mg/kg/injection, schedule: Q01DX009 (ip), vehicle: saline
smiles,measurement,setting,value
COc1ccc2c(c1)CCC(c1nc3cccc([N+](=O)[O-])c3[nH]c1=O)=C2O,survivor count,"dose: 60.0 mg/kg/injection, schedule: Q01DX005 (ip), vehicle: Klucel + Tween-80",6 of 6
same,survivor count,"dose: 120.0 mg/kg/injection, schedule: Q01DX005 (ip), vehicle: Klucel + Tween-80",6 of 6
same,survivor count,"dose: 240.0 mg/kg/injection, schedule: Q01DX005 (ip), vehicle: Klucel + Tween-80",4 of 6
COc1ccc2c(C)cc(N/N=C(\C)c3cn(C)n(-c4ccccc4)c3=O)nc2c1,survivor count,[1],0 of 6
CN1CCC(=C2c3ccccc3CCc3sccc32)CC1,survivor count,"dose: 200.0 mg/kg/injection, schedule: Q01DX009 (ip), vehicle: saline",0 of 6
N#CC(/C=C/c1ccccc1)(NO)Nc1cccc(Cl)c1 (configuration not stated),survivor count,"dose: 240.0 mg/kg/injection, schedule: Q01DX005 (ip), vehicle: saline with Tween-80",1 of 6
O=C(C[n+]1cc2ccccc2c2ccccc21)c1ccc(-c2ccccc2)cc1,survivor count,[1],0 of 5
Clc1nn2cnnc2c2ncccc12,survivor count,"dose: 100.0 mg/kg/injection, schedule: Q01DX009 (ip), vehicle: Klucel (hydroxypropylcellulose) (HPC)",0 of 6
same,survivor count,"dose: 200.0 mg/kg/injection, schedule: Q01DX009 (ip), vehicle: Klucel (hydroxypropylcellulose) (HPC)",0 of 6
OC(C1CO1)C(O)C1CO1 (configuration not stated),T/C,"dose: 0.5 mg/kg/injection, schedule: Q01DX009 (ip), vehicle: saline",138 [5 of 6 alive] and 139 % of control
same,T/C,"dose: 1.0 mg/kg/injection, schedule: Q01DX005 (ip), vehicle: saline",130 and 138 % of control
same,T/C,"dose: 1.3 mg/kg/injection, schedule: Q01DX005 (ip), vehicle: saline",136 % of control
same,T/C,"dose: 2.0 mg/kg/injection, schedule: Q01DX005 (ip), vehicle: saline, evaluated on day 30",154 and 157 % of control
same,T/C,"dose: 2.0 mg/kg/injection, schedule: Q01DX005 (ip), vehicle: saline, evaluated on day 45",156 and 172 % of control
same,T/C,"dose: 3.0 mg/kg/injection, schedule: Q01DX009 (ip), vehicle: saline",127 % of control
same,survivor count,"dose: 4.0 mg/kg/injection, schedule: Q01DX009 (ip), vehicle: saline",5 of 6
same,survivor count,"dose: 4.0 mg/kg/injection, schedule: Q01DX009 (ip), vehicle: water",6 of 6
same,survivor count,"dose: 6.0 mg/kg/injection, schedule: Q01DX009 (ip), vehicle: saline",6 of 6
same,survivor count,"dose: 6.7 mg/kg/injection, schedule: Q01DX005 (ip), vehicle: saline",6 of 6
same,survivor count,"dose: 8.0 mg/kg/injection, schedule: Q01DX005 (ip), vehicle: saline",8 of 8
same,survivor count,"dose: 8.0 mg/kg/injection, schedule: Q01DX009 (ip), vehicle: saline",6 of 6
same,survivor count,"dose: 8.0 mg/kg/injection, schedule: Q01DX009 (ip), vehicle: water",6 of 6
same,T/C,"dose: 10.0 mg/kg/injection, schedule: Q01DX001 (ip), vehicle: saline","193, 199, 200, 206 % of control"
same,T/C,"dose: 12.5 mg/kg/injection, schedule: Q01DX001 (ip), vehicle: saline","213, 240 [8 of 10 alive], 252, 256 % of control"
same,T/C,"dose: 12.5 mg/kg/injection, schedule: Q04DX003 (ip), vehicle: saline",128 % of control
same,T/C,"dose: 15.0 mg/kg/injection, schedule: Q01DX001 (ip), vehicle: saline","207, 221 [8 of 10 alive], 229, 284 % of control"
same,survivor count,"dose: 16.0 mg/kg/injection, schedule: Q01DX009 (ip), vehicle: saline with Tween-80",6 of 6
COc1ccc(-c2nn3c(=O)c(Cc4ccccc4)c(O)nc3nc2-c2ccccc2)cc1,survivor count,"dose: 25.0 mg/kg/injection, schedule: Q01DX005 (ip), vehicle: Klucel (hydroxypropylcellulose) (HPC)",6 of 6
same,survivor count,"dose: 50.0 mg/kg/injection, schedule: Q01DX005 (ip), vehicle: Klucel (hydroxypropylcellulose) (HPC)",6 of 6
same,survivor count,"dose: 100.0 mg/kg/injection, schedule: Q01DX005 (ip), vehicle: Klucel (hydroxypropylcellulose) (HPC)",6 of 6
same,survivor count,[1],6 of 6
CN(C)C1CCc2ccc3ccccc3c2C1=O (configuration not stated),survivor count,[1],0 of 6
COc1cc2oc3c(C)c(=O)cc4oc(-c5ccccc5)cc(c2c2c1CCC(c1ccccc1)O2)c43 (configuration not stated),survivor count,"dose: 14.0 mg/kg/injection, schedule: Q01DX005 (ip), vehicle: Klucel (hydroxypropylcellulose) (HPC)",6 of 6
Nc1ccc2[se]ccc2c1,survivor count,[2],6 of 6
COC1/C=C/OC2(C)Oc3c(C)c(O)c4c(O)c(c(/C=N/N5C(C)CN(Cc6ccc(NC(C)=O)cc6)CC5C)c(O)c4c3C2=O)NC(=O)C(C)=C/C=C/C(C)C(O)C(C)C(O)C(C)C(OC(C)=O)C1C (configuration not stated),T/C,"dose: 50.0 mg/kg/injection, schedule: Q01DX009 (ip), vehicle: saline with Tween-80",130 % of control
O=C(/C(=N/Nc1ccccc1)C(=S)Nc1ccccc1)c1ccccc1,survivor count,"dose: 100.0 mg/kg/injection, schedule: Q01DX005 (ip), vehicle: saline with Tween-80",6 of 6
CCN(CC)N=Nc1ccc(NC(C)=O)cc1,survivor count,"dose: 25.0 mg/kg/injection, schedule: Q04DX003 (ip), vehicle: Klucel (hydroxypropylcellulose) (HPC)",3 of 6
same,survivor count,"dose: 50.0 mg/kg/injection, schedule: Q04DX003 (ip), vehicle: Klucel (hydroxypropylcellulose) (HPC)",0 of 6
same,survivor count,"dose: 100.0 mg/kg/injection, schedule: Q04DX003 (ip), vehicle: Klucel (hydroxypropylcellulose) (HPC)",0 of 6 and 2 of 6
same,survivor count,"dose: 200.0 mg/kg/injection, schedule: Q04DX003 (ip), vehicle: Klucel (hydroxypropylcellulose) (HPC)",0 of 6
same,survivor count,"dose: 400.0 mg/kg/injection, schedule: Q04DX003 (ip), vehicle: Klucel (hydroxypropylcellulose) (HPC)",0 of 6
COc1ccc2c(c1)CCn1c(C)c(COC(=O)NC3CCCCC3)c(COC(=O)NC3CCCCC3)c1-2,T/C,"dose: 6.25 mg/kg/injection, schedule: Q01DX009 (ip), vehicle: distilled water + Tween-80",137 % of control
same,T/C,"dose: 12.5 mg/kg/injection, schedule: Q01DX009 (ip), vehicle: distilled water + Tween-80",134 and 144 % of control
same,T/C,"dose: 25.0 mg/kg/injection, schedule: Q01DX009 (ip), vehicle: distilled water + Tween-80",137 and 143 % of control
same,survivor count,"dose: 100.0 mg/kg/injection, schedule: Q01DX009 (ip), vehicle: distilled water + Tween-80",6 of 6
same,survivor count,"dose: 200.0 mg/kg/injection, schedule: Q01DX009 (ip), vehicle: distilled water + Tween-80",3 of 6
COc1nccn2c(C)nnc12,survivor count,"dose: 400.0 mg/kg/injection, schedule: Q01DX001 (ip), vehicle: Klucel (hydroxypropylcellulose) (HPC)",0 of 6
c1ccc2c(c1)[nH]c1cc3ccncc3cc12,survivor count,"dose: 400.0 mg/kg/injection, schedule: Q04DX003 (ip), vehicle: saline with Tween-80",5 of 5
NS(=O)(=O)c1ccc(N=c2c3ccccc3n(Cc3ccccc3)c3ccccc23)cc1,survivor count,"dose: 200.0 mg/kg/injection, schedule: Q01DX005 (ip), vehicle: saline with Tween-80",0 of 6
CCC(/C=C/C1OC(=O)C=CC1C)=C\C(C)C/C=C/C(C)=C/C(C)C(=O)C(C)C(O)C(C)C/C(C)=C/C(=O)O (configuration not stated),T/C,"dose: 12.5 micrograms/kg/injection, schedule: Q01DX005 (ip), vehicle: saline + alcohol",137 % of control
same,T/C,"dose: 25.0 micrograms/kg/injection, schedule: Q01DX005 (ip), vehicle: saline + alcohol",127 and 141 % of control
same,T/C,"dose: 50.0 micrograms/kg/injection, schedule: Q01DX005 (ip), vehicle: saline + alcohol",146 and 148 % of control
same,survivor count,"dose: 100.0 micrograms/kg/injection, schedule: Q01DX005 (ip), vehicle: saline + alcohol",6 of 6
same,survivor count,"dose: 200.0 micrograms/kg/injection, schedule: Q01DX005 (ip), vehicle: saline + alcohol",3 of 6 and 4 of 6
S=C(Nc1ccccc1)SSC(Cl)(Cl)Cl,survivor count,"dose: 200.0 mg/kg/injection, schedule: Q01DX009 (ip), vehicle: saline with Tween-80",2 of 6
COC(=O)c1cc([N+](=O)[O-])ccc1N=NNc1ccccc1,survivor count,"dose: 12.5 mg/kg/injection, schedule: Q01DX009 (ip), vehicle: saline",3 of 6
same,survivor count,[2],5 of 6
